Data reported in PubChem BioAssay AID2685 (National Center for Advancing Translational Sciences (NCATS), 2010).
The list shows a part of the results. The main result of the screen is listed elsewhere. These columns were measured beside it and carry no call. The list favours compounds with an active or inconclusive main result. The note in brackets gives the kind of curve behind each potency; many fits are weak.

Experiment: qHTS Assay for Lipid Storage Modulators in Drosophila S3 Cells;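 on cell number change: cells counted by Cell Tracker Red CMTPX staining in the red channel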
Conditions: BODIPY lipid droplet fluorescence, 18-24 h; for cell number change: measured here: cell count max response, cells fed with added oleic acid
In short: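 Laser-scanning cytometry quantifies lipid droplet accumulation (500–530 nm total intensity; droplet/cell object ratio) in oleic acid-fed (400 uM added) Drosophila S3 cells treated with a concentration series. 20 uM Triacsin C defined 100% inhibition.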

[1] = measured here: cell number channel AC50, cells fed with added oleic acid
[2] = measured here: lipid fluorescence (Fed channel) AC50, cells fed with added oleic acid

Structure (SMILES) | cell number change [%] | AC50 [1] | AC50 [2]
CCn1c(C)nc2cc(C(=O)NNC(=O)Nc3cccc(Cl)c3)ccc21 | -5.97 | 0.651 µM [falling, full curve, poor fit] | 
CCN(CC)C(=O)CSc1nc2cccnc2n1-c1ccccc1OC | 79.8 | 8.2 µM [rising, partial curve] | 7.31 µM [rising, partial curve]
COc1ccc([N+](=O)[O-])cc1NC(=O)CS(=O)(=O)c1ccc(C)cc1 |  |  | 7.31 µM [rising, single point]
CCc1ccc2nc(NC(=O)Cn3cnc4ccccc4c3=O)sc2c1 |  |  | 2.06 µM [rising, partial curve]
Cc1cc(C(=O)OC(C)C(=O)N2CCc3ccccc32)ccc1[N+](=O)[O-] (stereo not drawn) | 30.8 | 0.184 µM [rising, full curve, poor fit] | 
Brc1cccc(CNc2nc3ccccc3n2CCN2CCCCC2)c1 |  |  | 0.0366 µM [rising, full curve]
COc1ccc(C)cc1N(C(=O)c1ccco1)C(C(=O)NC1CCCC1)c1ccc(N2CCOCC2)cc1 (stereo not drawn) |  |  | 0.116 µM [rising, single point]
NNC(=S)NC1CCCCC1 | 6.34 |  | 0.708 µM [falling, single point]
CCOC(=O)c1c(NC(=O)COC(=O)CCOc2ccccc2C)sc(C(=O)NC)c1C | -14.8 |  | 16.4 µM [falling, single point]
COc1ccc(NC(=O)CS(=O)(=O)c2cn(CC(=O)N3CCCC3)c3ccccc23)c(OC)c1 | 21.2 | 6.51 µM [rising, single point] | 0.00461 µM [rising, full curve, poor fit]
CCn1c(N2CCN(CC(=O)Nc3cccc(C)c3C)CC2)nc2ccccc21 | 10.9 |  | 0.0461 µM [rising, full curve]
O=C(Cc1c(F)cccc1Cl)Nc1cc(S(=O)(=O)N2CCCCC2)ccc1N1CCOCC1 | 25 | 5.8 µM [rising, partial curve, poor fit] | 29.1 µM [rising, single point]
CO[C@H]1C=CO[C@@]2(C)Oc3c(C)c(O)c4c(O)c(c5c(c4c3C2=O)NC2(CCN(CC(C)C)CC2)N=5)=NC(=O)C(C)=CC=C[C@H](C)[C@H](O)[C@@H](C)[C@@H](O)[C@@H](C)[C@H](OC(C)=O)[C@@H]1C |  | 5.17 µM [falling, single point] | 5.8 µM [falling, single point]
Cc1ccccc1NC(=O)c1nnn(-c2ccc3c(c2)OCCO3)c1N | -14.1 | 2.31 µM [rising, partial curve] | 
Cc1ccccc1CCNC(=O)c1cc(C2CC2)nc2c1cnn2C(C)C | -6.52 |  | 6.51 µM [falling, partial curve, poor fit]
CCc1c(C)nc(SCC(=O)NNC(=O)c2ccco2)[nH]c1=O | -14.2 |  | 
CCCCn1c(N)c(N(CCC(C)C)C(=O)COC(=O)c2cccnc2Cl)c(=O)[nH]c1=O | 1.55 | 0.461 µM [rising, single point] | 29.1 µM [rising, single point]
CCC(C)Oc1cc(-c2ccnc(Nc3cccc(Cl)c3)n2)ccn1 (stereo not drawn) | -32.9 |  | 3.66 µM [rising, single point]

Pulled by structure from the list above:
Structure (SMILES) | cell number change [%] | AC50 [1] | AC50 [2]
NNC(=S)NC1CCCCC1 | 6.34 |  | 0.708 µM [falling, single point]
CCCCn1c(N)c(N(CCC(C)C)C(=O)COC(=O)c2cccnc2Cl)c(=O)[nH]c1=O | 1.55 | 0.461 µM [rising, single point] | 29.1 µM [rising, single point]
CCc1c(C)nc(SCC(=O)NNC(=O)c2ccco2)[nH]c1=O | -14.2 |  | 

Further records:

Structure (SMILES) | cell number change [%] | AC50 [1] | AC50 [2]
CC1CC(C)CN(S(=O)(=O)c2ccc(NC(=O)C3COc4ccccc4O3)cc2)C1 (stereo not drawn) | -11 |  | 20.6 µM [falling, single point]
COc1ccc(NC(=O)CCC(=O)c2cccs2)c(OC)c1 | 23.1 |  | 0.116 µM [falling, single point]
CCc1ccc(OCCNC(=O)c2cc(SC)ccc2Cl)cc1 | -36.7 | 32.6 µM [falling, single point] | 20.6 µM [falling, single point]
N#C/C(=C(/O)COC(=O)c1ccc(O)cc1)c1nc2ccccc2[nH]1 | -4.16 |  | 4.11 µM [falling, single point]
CCC(=O)Nc1ccc(Cl)c(NC(=O)c2cccc(OC)c2)c1 | 23.7 |  | 4.11 µM [rising, full curve, poor fit]
CC(C)CNc1nc(S(=O)(=O)c2ccccc2)c(Cl)s1 | -55.5 | 20.6 µM [falling, partial curve] | 13 µM [falling, partial curve]
CSc1ccc(CCNC(=O)c2cccc3c2C(=O)N(C2CCCCC2)C3)cc1 | -1.77 |  | 0.164 µM [falling, full curve, poor fit]
O=C(CN1CCN(C(=O)C2CCCO2)CC1)Nc1ccc(Br)cc1 (stereo not drawn) | 9.83 |  | 
OCC[C@H]1C[C@H](O)[C@@H](O)[C@@]2(CCCc3ccccc3O2)O1 | -10.2 |  | 8.2 µM [rising, partial curve, poor fit]
Cc1noc(C)c1COC(=O)c1cccc(N(C)C)c1 | 16.2 |  | 
CS(=O)(=O)Nc1ccccc1C(=O)NCCSc1ccccc1 | 19.7 |  | 2.91 µM [rising, partial curve, poor fit]
O=C1CC(/C=C/c2ccccc2)(C(=O)NC2CCCC2)N1c1ccc(S(=O)(=O)N2CCCC2)cc1 (stereo not drawn) | 3.73 |  | 7.31 µM [rising, single point]
Cn1c(=O)oc2cc(S(=O)(=O)Nc3cccc4c3CCCC4)ccc21 | -18.5 |  | 
C/C(=N\NC(=O)c1cc(-c2cccc(OC(C)C)c2)nc2ccccc12)c1cccnc1 | 3.96 |  | 29.1 µM [rising, single point]
COc1ccc(S(=O)(=O)N2CCc3ccccc32)cc1C(=O)OCc1c(C)noc1C | -30.5 | 8.2 µM [falling, partial curve, poor fit] | 
CCOC(=O)CCCNC(=O)COC(=O)c1cc2ccccc2cc1O | -5.66 |  | 
CN(CC(=O)NCc1ccc(F)cc1)CC(=O)Nc1ccc(Cl)c(C(F)(F)F)c1 | -11 |  | 23.1 µM [falling, partial curve, poor fit]
CCN(CC(=O)NCc1ccc(Cl)cc1)C(=O)/C=C/c1ccc(Cl)c([N+](=O)[O-])c1 | 8.65 |  | 
